The values that follow come from paper PMC9065186.

Sequences of proteins named here, by UniProt entry; tags and fusion partners are left off.
UniProt O75643: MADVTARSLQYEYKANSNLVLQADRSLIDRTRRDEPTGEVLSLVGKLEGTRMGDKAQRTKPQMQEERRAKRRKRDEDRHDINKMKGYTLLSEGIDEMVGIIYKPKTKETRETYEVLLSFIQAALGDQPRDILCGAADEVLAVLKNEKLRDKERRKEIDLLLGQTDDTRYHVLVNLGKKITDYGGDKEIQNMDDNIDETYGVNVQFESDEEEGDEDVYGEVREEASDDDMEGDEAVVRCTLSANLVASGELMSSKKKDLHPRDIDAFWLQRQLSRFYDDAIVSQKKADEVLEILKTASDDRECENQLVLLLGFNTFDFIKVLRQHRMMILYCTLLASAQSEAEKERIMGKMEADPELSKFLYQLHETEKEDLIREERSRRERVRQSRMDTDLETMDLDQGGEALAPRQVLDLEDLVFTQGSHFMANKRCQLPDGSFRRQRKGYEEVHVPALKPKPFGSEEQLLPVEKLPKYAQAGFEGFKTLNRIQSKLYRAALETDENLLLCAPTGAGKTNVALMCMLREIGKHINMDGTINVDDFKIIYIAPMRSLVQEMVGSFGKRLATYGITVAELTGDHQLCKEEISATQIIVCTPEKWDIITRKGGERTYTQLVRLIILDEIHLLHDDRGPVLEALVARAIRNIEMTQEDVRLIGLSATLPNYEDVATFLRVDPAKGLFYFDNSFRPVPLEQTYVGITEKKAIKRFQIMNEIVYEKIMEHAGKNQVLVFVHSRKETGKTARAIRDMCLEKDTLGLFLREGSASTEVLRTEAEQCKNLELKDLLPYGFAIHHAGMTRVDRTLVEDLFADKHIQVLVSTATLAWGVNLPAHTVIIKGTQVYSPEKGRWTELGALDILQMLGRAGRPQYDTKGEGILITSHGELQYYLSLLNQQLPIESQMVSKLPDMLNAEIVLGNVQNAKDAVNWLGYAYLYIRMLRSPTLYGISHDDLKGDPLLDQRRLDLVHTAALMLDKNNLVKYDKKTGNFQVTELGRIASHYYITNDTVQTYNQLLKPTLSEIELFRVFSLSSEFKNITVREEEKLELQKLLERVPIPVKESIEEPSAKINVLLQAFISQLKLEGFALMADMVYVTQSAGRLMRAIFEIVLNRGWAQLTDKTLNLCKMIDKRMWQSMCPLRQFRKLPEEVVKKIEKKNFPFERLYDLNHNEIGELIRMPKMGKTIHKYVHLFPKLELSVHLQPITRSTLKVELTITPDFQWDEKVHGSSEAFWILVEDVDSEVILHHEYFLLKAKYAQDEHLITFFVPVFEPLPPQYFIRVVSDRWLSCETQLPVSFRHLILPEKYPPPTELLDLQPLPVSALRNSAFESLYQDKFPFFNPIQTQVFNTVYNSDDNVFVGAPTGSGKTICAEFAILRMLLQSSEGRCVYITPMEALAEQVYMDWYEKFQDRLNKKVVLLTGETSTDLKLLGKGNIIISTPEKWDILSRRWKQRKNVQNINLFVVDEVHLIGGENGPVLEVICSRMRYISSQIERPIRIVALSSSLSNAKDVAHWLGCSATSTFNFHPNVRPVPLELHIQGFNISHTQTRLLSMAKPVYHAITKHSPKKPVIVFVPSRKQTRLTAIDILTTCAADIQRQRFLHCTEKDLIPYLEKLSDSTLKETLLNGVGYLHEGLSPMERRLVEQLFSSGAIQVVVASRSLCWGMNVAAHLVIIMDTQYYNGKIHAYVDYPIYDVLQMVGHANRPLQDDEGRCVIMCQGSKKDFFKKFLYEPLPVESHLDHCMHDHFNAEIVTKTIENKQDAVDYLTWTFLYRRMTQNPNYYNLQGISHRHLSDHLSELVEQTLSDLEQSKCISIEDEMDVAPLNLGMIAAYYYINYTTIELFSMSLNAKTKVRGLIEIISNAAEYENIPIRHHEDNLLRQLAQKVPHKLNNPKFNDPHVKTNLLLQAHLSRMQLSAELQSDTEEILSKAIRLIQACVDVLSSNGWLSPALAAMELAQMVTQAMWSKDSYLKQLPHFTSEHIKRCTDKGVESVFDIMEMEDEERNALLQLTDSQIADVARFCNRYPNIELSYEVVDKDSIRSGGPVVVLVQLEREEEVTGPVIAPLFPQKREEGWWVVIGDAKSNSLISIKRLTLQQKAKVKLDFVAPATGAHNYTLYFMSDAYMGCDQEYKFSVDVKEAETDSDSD

Test [1] has as its target T1, GFP-NONO (UniProt Q15233).
T1 sequence: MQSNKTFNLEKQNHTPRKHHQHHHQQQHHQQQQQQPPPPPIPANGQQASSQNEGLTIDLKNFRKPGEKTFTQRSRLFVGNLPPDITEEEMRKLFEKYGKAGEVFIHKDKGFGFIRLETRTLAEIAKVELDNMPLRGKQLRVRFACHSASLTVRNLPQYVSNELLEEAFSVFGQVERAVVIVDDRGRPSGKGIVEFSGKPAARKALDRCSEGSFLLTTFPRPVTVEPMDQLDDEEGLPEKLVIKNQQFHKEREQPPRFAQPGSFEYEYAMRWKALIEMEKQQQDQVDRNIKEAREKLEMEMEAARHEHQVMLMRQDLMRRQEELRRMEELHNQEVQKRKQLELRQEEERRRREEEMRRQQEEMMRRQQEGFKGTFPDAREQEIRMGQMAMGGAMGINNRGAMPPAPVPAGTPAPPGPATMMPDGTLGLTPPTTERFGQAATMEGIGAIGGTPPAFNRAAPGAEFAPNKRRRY
The experiment in a line: condition: only cells treated with 100 nM rapamycin, without NEAT1_2 knockdown; co-IP; GFP-NONO co-IP from extracts of SNU423 cells treated with 100 nM rapamycin, without NEAT1_2 knockdown.

Test [2] deals with T1, GFP-NONO. Nature of the test: co-IP; GFP-NONO co-IP from extracts of SNU423 cells; cells untreated, or treated with 100 nM rapamycin after NEAT1_2 knockdown.

No constants are given. Whether binding was seen depends on the method and setting. Binding seen in cells or lysates may run through a third protein. Some entries that bind do so weakly or less than the wild type. Where a sequence is shown, tags or fusion partners need not be part of it.

For BRR2 (from UniProt O75643 1-2136), the binding result in the test with GFP-NONO [1] was “no binding”; in the test with GFP-NONO [2], “binds”.

B1: PRPF6 (protein, UniProt O94906 1-941)
chain: MNKKKKPFLGMPAPLGYVPGLGRGATGFTTRSDIGPARDANDPVDDRHAPPGKRTVGDQMKKNQAADDDDEDLNDTNYDEFNGYAGSLFSSGPYEKDDEEADAIYAALDKRMDERRKERREQREKEEIEKYRMERPKIQQQFSDLKRKLAEVTEEEWLSIPEVGDARNKRQRNPRYEKLTPVPDSFFAKHLQTGENHTSVDPRQTQFGGLNTPYPGGLNTPYPGGMTPGLMTPGTGELDMRKIGQARNTLMDMRLSQVSDSVSGQTVVDPKGYLTDLNSMIPTHGGDINDIKKARLLLKSVRETNPHHPPAWIASARLEEVTGKLQVARNLIMKGTEMCPKSEDVWLEAARLQPGDTAKAVVAQAVRHLPQSVRIYIRAAELETDIRAKKRVLRKALEHVPNSVRLWKAAVELEEPEDARIMLSRAVECCPTSVELWLALARLETYENARKVLNKARENIPTDRHIWITAAKLEEANGNTQMVEKIIDRAITSLRANGVEINREQWIQDAEECDRAGSVATCQAVMRAVIGIGIEEEDRKHTWMEDADSCVAHNALECARAIYAYALQVFPSKKSVWLRAAYFEKNHGTRESLEALLQRAVAHCPKAEVLWLMGAKSKWLAGDVPAARSILALAFQANPNSEEIWLAAVKLESENDEYERARRLLAKARSSAPTARVFMKSVKLEWVQDNIRAAQDLCEEALRHYEDFPKLWMMKGQIEEQKEMMEKAREAYNQGLKKCPHSTPLWLLLSRLEEKIGQLTRARAILEKSRLKNPKNPGLWLESVRLEYRAGLKNIANTLMAKALQECPNSGILWSEAIFLEARPQRRTKSVDALKKCEHDPHVLLAVAKLFWSQRKITKAREWFHRTVKIDSDLGDAWAFFYKFELQHGTEEQQEEVRKRCESAEPRHGELWCAVSKDIANWQKKIGDILRLVAGRIKNTF
On to B1, for which the results for the binding result in the test with GFP-NONO [1] and with GFP-NONO [2] were “no binding” and “binds”, respectively.
